Reference: the supplement of paper PMC11732987, “Enantioselective OTUD7B fragment discovery through chemoproteomics screening and high-throughput optimisation” (Communications Chemistry, 2025)
Some of the results follow. The data scatter; read single values as rough.

Sequences of proteins named here, by UniProt entry; tags and fusion partners are left off. A change or cut given only in a name is not applied to a line headed by its entry. Residues count along the entry.
UniProt Q5VT25: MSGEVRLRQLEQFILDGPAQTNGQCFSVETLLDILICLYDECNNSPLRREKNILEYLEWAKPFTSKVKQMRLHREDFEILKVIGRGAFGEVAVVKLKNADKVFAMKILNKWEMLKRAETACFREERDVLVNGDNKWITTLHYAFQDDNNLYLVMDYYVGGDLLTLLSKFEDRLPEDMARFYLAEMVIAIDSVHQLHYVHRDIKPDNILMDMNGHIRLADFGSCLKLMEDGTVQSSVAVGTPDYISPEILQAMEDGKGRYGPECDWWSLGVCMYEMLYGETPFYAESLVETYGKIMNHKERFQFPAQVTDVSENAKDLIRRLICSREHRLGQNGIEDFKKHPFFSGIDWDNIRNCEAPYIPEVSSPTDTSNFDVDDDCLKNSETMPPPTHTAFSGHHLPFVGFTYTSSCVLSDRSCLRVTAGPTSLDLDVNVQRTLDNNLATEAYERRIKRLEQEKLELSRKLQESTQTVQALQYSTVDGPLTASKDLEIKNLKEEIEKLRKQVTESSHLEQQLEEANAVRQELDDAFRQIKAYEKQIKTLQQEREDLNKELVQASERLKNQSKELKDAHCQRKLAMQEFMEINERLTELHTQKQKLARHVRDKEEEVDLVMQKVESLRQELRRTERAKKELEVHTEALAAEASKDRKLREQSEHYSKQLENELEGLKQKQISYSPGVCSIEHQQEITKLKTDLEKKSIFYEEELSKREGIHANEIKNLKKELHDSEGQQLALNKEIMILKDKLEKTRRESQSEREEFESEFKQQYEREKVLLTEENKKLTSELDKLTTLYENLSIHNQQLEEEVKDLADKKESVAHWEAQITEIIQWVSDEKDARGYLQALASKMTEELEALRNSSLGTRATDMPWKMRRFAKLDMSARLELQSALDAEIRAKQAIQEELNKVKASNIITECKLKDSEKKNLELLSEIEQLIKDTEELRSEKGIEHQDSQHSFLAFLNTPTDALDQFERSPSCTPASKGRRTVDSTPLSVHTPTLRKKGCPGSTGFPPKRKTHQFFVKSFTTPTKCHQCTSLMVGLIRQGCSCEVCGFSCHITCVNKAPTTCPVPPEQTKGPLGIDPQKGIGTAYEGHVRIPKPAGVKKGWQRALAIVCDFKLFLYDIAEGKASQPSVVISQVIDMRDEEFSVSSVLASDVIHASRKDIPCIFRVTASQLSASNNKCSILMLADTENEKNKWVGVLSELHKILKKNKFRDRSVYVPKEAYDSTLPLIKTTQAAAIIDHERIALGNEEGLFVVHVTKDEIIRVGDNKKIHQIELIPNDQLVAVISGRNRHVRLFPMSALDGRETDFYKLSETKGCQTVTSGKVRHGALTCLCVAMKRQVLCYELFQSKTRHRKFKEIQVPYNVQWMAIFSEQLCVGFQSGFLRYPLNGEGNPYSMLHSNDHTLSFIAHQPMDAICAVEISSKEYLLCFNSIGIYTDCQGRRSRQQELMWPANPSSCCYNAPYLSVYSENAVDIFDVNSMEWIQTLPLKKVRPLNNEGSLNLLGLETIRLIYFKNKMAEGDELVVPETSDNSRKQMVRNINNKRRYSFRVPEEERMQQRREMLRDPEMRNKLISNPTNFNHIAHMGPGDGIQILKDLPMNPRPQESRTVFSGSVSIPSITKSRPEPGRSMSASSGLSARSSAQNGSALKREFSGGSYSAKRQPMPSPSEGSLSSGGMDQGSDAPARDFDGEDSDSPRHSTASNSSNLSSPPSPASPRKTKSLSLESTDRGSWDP
UniProt O75794: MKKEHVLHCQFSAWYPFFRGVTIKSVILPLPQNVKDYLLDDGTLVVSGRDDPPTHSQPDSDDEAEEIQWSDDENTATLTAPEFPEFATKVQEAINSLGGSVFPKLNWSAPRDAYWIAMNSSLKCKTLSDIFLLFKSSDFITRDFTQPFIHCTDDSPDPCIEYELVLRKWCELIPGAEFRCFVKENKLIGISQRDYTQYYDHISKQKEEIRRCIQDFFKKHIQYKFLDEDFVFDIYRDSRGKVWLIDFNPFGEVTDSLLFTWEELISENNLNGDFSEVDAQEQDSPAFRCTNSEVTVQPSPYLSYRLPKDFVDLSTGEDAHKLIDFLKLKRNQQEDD
UniProt Q00534, 306-326: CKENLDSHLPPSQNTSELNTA
UniProt P49454: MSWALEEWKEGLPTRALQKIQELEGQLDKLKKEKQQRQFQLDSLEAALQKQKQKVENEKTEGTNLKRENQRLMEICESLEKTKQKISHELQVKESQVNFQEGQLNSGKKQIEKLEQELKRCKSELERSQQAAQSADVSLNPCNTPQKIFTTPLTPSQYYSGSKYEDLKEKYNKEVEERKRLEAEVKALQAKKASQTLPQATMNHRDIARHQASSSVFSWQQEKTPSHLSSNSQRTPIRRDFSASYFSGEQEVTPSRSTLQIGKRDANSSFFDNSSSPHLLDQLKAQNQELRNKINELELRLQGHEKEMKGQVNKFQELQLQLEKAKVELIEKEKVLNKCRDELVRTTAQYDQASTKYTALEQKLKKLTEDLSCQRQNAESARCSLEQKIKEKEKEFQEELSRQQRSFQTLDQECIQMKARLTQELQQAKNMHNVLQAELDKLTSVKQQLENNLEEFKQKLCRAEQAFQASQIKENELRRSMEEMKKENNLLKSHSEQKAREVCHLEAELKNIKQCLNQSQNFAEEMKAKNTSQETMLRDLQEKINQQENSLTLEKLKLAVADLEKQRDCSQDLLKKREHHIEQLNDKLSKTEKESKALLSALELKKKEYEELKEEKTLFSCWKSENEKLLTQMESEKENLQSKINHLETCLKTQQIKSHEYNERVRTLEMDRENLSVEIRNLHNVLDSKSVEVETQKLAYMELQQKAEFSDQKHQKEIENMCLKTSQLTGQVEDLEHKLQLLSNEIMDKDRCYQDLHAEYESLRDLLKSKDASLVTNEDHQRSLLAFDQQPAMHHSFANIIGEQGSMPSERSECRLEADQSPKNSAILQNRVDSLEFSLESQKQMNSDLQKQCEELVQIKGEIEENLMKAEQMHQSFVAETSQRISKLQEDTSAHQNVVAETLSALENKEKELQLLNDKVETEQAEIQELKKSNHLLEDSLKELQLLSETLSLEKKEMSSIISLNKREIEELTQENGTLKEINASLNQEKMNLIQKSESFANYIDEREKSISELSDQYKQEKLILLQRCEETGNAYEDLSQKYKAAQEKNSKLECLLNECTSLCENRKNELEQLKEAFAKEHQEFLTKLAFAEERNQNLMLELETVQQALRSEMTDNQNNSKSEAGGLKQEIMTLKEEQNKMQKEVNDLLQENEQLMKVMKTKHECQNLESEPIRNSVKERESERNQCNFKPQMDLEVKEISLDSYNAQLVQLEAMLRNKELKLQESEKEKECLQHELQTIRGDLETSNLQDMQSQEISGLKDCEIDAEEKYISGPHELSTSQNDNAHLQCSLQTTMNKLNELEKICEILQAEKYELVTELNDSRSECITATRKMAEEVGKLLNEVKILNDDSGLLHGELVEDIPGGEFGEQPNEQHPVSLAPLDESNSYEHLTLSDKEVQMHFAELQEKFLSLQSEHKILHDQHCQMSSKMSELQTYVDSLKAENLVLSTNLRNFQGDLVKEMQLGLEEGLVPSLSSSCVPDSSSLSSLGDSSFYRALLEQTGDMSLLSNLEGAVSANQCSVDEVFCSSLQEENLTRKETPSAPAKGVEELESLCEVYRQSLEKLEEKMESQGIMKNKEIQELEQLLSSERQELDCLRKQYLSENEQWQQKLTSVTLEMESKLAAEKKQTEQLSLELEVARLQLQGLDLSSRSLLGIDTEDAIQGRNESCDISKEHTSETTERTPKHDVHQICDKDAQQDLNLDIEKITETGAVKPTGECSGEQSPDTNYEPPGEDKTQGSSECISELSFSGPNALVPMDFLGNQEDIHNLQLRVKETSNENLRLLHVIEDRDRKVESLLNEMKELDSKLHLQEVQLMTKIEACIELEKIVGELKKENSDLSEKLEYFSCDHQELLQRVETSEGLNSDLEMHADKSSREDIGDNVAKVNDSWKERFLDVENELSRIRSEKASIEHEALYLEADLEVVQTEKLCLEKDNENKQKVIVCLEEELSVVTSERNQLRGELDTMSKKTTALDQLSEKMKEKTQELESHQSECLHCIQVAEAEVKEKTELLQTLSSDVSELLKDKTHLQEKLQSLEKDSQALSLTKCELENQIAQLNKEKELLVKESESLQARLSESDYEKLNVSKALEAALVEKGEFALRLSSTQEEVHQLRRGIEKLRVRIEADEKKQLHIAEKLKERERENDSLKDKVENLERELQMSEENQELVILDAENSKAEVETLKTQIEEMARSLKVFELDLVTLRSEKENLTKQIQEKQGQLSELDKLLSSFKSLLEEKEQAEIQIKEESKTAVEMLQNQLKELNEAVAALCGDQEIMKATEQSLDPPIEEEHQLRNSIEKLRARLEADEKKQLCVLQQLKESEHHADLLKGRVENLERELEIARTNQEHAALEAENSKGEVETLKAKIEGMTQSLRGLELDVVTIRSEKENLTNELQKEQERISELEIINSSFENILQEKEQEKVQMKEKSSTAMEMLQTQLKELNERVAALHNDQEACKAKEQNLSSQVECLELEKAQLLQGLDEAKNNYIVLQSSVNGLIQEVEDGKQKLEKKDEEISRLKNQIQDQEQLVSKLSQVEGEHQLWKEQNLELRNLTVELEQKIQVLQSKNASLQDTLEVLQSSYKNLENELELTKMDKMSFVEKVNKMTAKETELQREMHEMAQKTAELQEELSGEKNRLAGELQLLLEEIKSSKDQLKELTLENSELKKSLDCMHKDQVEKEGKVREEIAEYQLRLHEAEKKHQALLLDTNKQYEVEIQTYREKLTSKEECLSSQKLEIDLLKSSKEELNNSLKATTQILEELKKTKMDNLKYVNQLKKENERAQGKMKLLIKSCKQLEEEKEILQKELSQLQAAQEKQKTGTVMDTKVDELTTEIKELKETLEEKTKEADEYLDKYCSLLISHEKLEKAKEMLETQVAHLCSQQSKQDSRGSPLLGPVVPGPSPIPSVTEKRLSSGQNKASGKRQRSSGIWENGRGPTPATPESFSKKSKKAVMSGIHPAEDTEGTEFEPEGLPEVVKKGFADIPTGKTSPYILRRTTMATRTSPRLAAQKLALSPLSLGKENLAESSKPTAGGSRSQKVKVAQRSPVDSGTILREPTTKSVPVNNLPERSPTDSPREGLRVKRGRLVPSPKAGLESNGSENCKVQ
UniProt Q69YH5: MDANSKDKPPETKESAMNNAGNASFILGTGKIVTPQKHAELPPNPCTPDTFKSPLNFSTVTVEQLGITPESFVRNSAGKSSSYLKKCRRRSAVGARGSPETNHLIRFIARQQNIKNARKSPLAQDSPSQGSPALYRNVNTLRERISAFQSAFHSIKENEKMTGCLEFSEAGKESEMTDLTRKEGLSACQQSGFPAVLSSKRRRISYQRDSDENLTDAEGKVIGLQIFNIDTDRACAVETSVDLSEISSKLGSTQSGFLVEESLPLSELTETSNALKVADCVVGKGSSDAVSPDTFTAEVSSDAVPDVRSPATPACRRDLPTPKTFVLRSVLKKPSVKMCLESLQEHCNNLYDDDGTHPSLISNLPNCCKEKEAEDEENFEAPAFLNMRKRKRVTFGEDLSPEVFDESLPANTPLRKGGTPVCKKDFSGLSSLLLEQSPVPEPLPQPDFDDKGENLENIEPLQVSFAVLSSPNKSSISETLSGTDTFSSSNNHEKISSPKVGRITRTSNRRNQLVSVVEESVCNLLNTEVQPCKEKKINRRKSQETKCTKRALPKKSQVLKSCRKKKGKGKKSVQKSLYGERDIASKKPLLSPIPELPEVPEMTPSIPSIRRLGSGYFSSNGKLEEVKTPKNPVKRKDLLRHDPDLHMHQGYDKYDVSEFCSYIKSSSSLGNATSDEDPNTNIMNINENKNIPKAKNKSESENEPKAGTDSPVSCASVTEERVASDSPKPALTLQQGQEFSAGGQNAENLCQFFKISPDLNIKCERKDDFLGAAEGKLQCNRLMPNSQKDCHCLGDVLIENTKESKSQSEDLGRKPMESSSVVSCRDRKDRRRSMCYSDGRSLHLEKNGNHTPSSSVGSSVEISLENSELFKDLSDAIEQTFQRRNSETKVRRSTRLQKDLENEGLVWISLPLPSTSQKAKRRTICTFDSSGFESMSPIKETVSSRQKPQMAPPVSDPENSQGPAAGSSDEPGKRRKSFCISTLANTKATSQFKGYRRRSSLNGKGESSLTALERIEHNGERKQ
UniProt P49427: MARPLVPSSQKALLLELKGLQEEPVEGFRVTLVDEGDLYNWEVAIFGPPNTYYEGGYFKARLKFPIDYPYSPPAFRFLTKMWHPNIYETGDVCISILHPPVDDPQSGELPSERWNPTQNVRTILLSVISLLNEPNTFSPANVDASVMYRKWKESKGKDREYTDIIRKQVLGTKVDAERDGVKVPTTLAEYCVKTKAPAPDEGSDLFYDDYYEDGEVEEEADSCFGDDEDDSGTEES

Compound: ClCC(=O)N[C@H]1CCCc2ccccc12
Experiment: log2 mean competition ratio of IA-DTB cysteine labelling (DMSO/compound) (log2 ratio); higher = stronger cysteine engagement by compound
Conditions: 200 µM; treatment time: 4 h; cell line lysate: HEK293T
Procedure: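 IA-DTB competitive cysteine chemoproteomics in HEK293T RIPA lysate. Lysates were treated with compound 29 or 30 at 50 or 200 µM for 4 h, then IA-DTB (500 µM, 1 h), trypsin-digested, NeutrAvidin-enriched and analysed by diaPASEF. Competition ratio = intensity DMSO / intensity compound (n=4 treated, n=64 DMSO); binding: mean log2 CR ≥ 1 and p ≤ 0.05 plus QC filters. Target is the cysteine site.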

Row | Target | log2 mean competition ratio
1 | CDK5RAP2 C1528 (UniProt Q96SN8) | 0.13
2 | CCDC77 C455 | 0.102
3 | CCDC74A;CCDC74B C241;(C241) | -0.248
4 | CCT7 C310 (UniProt Q99832) | -0.0766
5 | CCDC88C C1467 (UniProt Q9P219) | -0.277
6 | CCT8 C430 | -0.032
7 | CDC25C C42 (UniProt P30307) | 0.134
8 | CDR2 C432 (UniProt Q01850) | -0.0243
9 | CCT2 C289 (UniProt P78371) | 0.0077
10 | CCAR1 C465 (UniProt Q8IX12) | 0.0881
11 | CEP170B C217 (UniProt Q9Y4F5) | 0.077
12 | CDC42BPA C912 (UniProt Q5VT25) | -0.0753
13 | CERT1 C65 | 0.107
14 | CEP43 C244 | 0.102
15 | CHCHD3 C112 (UniProt Q9NX63) | 0.106
16 | CDC123 C170 (UniProt O75794) | -0.309
17 | CDK5 C94 (UniProt Q00535) | 0.0866
18 | CCDC86 C116 (UniProt Q9H6F5) | -0.0807
19 | CFL1 C39 | -0.625

Row | Target | log2 mean competition ratio
20 | CDK11A C428 (UniProt Q9UQ88) | 0.0144
21 | CEP170 C967 (UniProt Q5SW79) | -0.245
22 | CDK6 C306 (UniProt Q00534) | -0.152
23 | CEP350 C1432 (UniProt Q5VT06) | 0.381
24 | CDK2AP1;CDK2AP2 C105;(C116) | 0.303
25 | CEP112 C514 (UniProt Q8N8E3) | -0.168
26 | CDKN2AIP C178 (UniProt Q9NXV6) | -0.215
27 | CENPF C650 (UniProt P49454) | 0.0278
28 | CCDC25 C83 (UniProt Q86WR0) | -0.094
29 | CCT4 C221 (UniProt P50991) | 0.00185
30 | CDCA2 C714 (UniProt Q69YH5) | -0.0324
31 | CDCA2 C235 (UniProt Q69YH5) | -0.407
32 | CDC16 C133 (UniProt Q13042) | -0.158
33 | CENPF C621 (UniProt P49454) | 0.113
34 | CDC34 C191 (UniProt P49427) | 0.123
35 | CENPF C1328 (UniProt P49454) | 0.232
36 | CDC42BPA C678 (UniProt Q5VT25) | 0.184
37 | CCT7 C450 (UniProt Q99832) | 0.283
